Results: the supplement of paper PMC8256030
The other results are listed elsewhere or left out. Single values are uncertain here, since repeats match poorly.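 HEK293T cells were given each compound shortly before transfection with a reporter in which red mCherry is followed by the SARS-CoV-2 frameshift element and then GFP in the −1 frame, so GFP appears only after frameshifting.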

Each compound was assayed on SARS-CoV-2 -1 PRF reporter mCherry-FSE-GFP(-1) (assay: percent effect, decrease of GFP/mCherry ratio (-1 PRF reporter) relative to controls; higher = stronger frameshift inhibition). Details: 10 µM; 24 h; HEK293T.

| SMILES | percent effect [%] |
| --- | --- |
| CN(C)CCCN1c2ccccc2CCc2ccc(Cl)cc21 [clomipramine] | 1.62 |
| C[C@H](O)[C@H](O)[C@H]1CNc2nc(N)[nH]c(=O)c2N1 [Sapropterin] | -7.31 |
| N=C(N)NC(=O)c1nc(Cl)c(N)nc1N [amiloride] | -8.64 |
| Cc1cc(=O)n(-c2ccccc2)n1C [Phenazone] | 0.048 |
| CN(C)CCc1c[nH]c2ccc(C[C@H]3COC(=O)N3)cc12 [Zolmitriptan] | 0.619 |
| CC(C)[C@H]1CC[C@H](C)C[C@@H]1O [racementhol] | -0.256 |
| COc1cc(Cl)nc(OC)n1 | -4.04 |
| CCCCCCCCCCCCCCCC(=O)OC[C@@H](NC(=O)C(Cl)Cl)[C@H](O)c1ccc([N+](=O)[O-])cc1 | 4.97 |
| N/C=C1\Cc2ccccc2C1=O [drinidene] | -5.86 |
